Measured values: publication PMC12652325
Results are given in words; binding and its absence hold for the method and conditions named. In cells and extracts the contact can be indirect. Some results given as binding are weak or reduced against the parent protein; the word gives no strength.

The chains behind the UniProt entries cited, without tags or fusion partners.
UniProt P51608: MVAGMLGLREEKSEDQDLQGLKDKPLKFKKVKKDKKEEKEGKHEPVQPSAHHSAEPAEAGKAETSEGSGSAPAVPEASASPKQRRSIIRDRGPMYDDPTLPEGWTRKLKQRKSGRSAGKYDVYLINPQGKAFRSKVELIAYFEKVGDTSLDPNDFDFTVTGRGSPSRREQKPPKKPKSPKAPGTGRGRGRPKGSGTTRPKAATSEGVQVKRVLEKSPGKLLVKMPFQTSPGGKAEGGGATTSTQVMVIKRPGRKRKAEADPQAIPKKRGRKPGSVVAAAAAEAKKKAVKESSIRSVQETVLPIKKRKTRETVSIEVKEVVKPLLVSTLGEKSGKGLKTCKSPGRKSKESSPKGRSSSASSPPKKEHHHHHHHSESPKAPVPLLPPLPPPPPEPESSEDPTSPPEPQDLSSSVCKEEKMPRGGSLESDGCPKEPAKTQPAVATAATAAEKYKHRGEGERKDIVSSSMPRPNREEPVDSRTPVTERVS
UniProt O00472: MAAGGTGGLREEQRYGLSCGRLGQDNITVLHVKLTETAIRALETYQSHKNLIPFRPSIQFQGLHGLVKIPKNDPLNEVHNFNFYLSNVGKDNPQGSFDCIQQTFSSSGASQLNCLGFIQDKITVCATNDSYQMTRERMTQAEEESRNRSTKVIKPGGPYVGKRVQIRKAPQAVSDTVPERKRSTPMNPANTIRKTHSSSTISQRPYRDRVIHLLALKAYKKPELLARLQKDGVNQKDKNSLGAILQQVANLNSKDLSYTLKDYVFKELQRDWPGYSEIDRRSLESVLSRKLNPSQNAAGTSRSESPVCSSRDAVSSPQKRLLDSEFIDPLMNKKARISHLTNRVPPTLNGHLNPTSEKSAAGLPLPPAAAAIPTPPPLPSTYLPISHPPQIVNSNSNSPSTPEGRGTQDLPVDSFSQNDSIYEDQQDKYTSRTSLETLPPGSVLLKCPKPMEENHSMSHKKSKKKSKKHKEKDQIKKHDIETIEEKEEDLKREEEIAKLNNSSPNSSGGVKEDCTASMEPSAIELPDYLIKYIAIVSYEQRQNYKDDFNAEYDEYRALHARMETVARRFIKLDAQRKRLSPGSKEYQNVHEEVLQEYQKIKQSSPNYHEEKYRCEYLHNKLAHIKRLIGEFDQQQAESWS

Biological target: FLAG-tagged MeCP2, full length (human) (UniProt P51608)
Experiment: co-IP; in vitro binding assay: in vitro transcribed and translated FLAG-tagged MeCP2 (or fragment) incubated with one HA-tagged SEC subunit in 250 ul IP buffer, 1 hour, 4°C; IP with FLAG antibody-conjugated beads, four washes; blots for HA and FLAG

binding: binds weakly
Substance: HA-tagged ELL2 (from UniProt O00472 1-640)
